Experiment [1] addresses cSIRPαV1D1 with histidine tag (cynomolgus monkey (Macaca fascicularis)). The experiment can be described thus: SPR (Biacore), summary of Tables 13 and 14. On the technique in general: SPR reads the build-up and loss of mass on a sensor chip optically.
Experiment [2] deals with cSIRPαV2D1 with histidine tag (cynomolgus monkey (Macaca fascicularis)). The experiment can be described thus: SPR (Biacore), summary of Tables 13 and 14.

The source of these data is patent publication US20220235144A1.

These are yes or no findings as the source states them, for the method shown. Binding can be weak; no strength is given.

B1: Ab1_G4 (antibody, human IgG4 S228P, kappa, V domains shown)
VH: EVQLVESGGGLVKPGGSLRLSCAASGFTFSSYVMSWVRQTPGKGLEWVATISSGGTYTYYPSSVKGRFTLSRDNAKNSLYLQMNSLRAEDTAVYYCASSLTGSSFDYWGQGTTVTVSS
VL: DIVLTQSPASLAVSLGERATISCRASESVDLYGTSFMHWYQQKPGQPPKLLIYRASNLESGVPDRFSGSGSRTDFTLTINPLQAEDVATYYCHQSSDELPWTFGGGTKVEIKR
As to B1, the binding entry in experiment [1] and in experiment [2] was “binds” throughout.

B2: Ab2_G4 (antibody, human IgG4 S228P, kappa, V domains shown)
VH: EVQLVESGGGLVKPGGSLRLSCAASGFTFSSYVMSWVRQTPGKGLEWVATISSGGTYTYYPDSVKGRFTLSRDNAKNSLYLQMNSLRAEDTAVYYCASSVDGSAFDYWGQGTTVTVSS
VL: DIVITQSPASLAVSLGERATISCRASESVDSYGMSFMHWYQQKPGQPPKLLIYRASNLESGVPDRFSGSGSRTDFTLTINPLQAEDVATYYCHQSSENLPWTFGGGTKVEIKR
For B2, the binding entry in experiment [1] and in experiment [2] was “binds” throughout.

B3: Ab11_G4 (antibody, human IgG4 S228P, kappa, V domains shown)
VH: EVQLVESGGGLVKPGGSLRLSCAASGFTFSSYVMSWVRQTPGKGLEWVATISSGGTYTYYPDSVKGRFTLSRDNAKNSLYLQMNSLRAEDTAVYYCASQLTGSEFDYWGQGTTVTVSS
VL: DIVITQSPASLAVSLGERATISCRASESVDSYGNSFMHWYQQKPGQPPKLLIYRASNLESGVPDRFSGSGSRTDFTLTINPLQAEDVATYYCHQSGDLPWTFGGGTKVEIKR
B3: the binding entry in experiment [1] and in experiment [2] was “binds” each time.

B4: Ab9_G4 (antibody, human IgG4 S228P, kappa, V domains shown)
VH: EVQLVESGGGLVKPGGSLRLSCAASGFTFSSYVMSWVRQTPGKGLEWVATISSGGTYTYYPNSVKGRFTLSRDNAKNSLYLQMNSLRAEDTAVYYCVSSMTGSSFDYWGQGTTVTVSS
VL: DIVITQSPASLAVSLGERATISCRASESVDSYGNSFMHWYQQKPGQPPKLLIYRASNLESGVPDRFSGSGSRTDFTLTINPLQAEDVATYYCHQSSEQLPWTFGGGTKVEIKR
As to B4, the binding result in experiment [1] and in experiment [2] was “binds” each time.

B5: Ab8_G4 (antibody, human IgG4 S228P, kappa, V domains shown)
VH: EVQLVESGGGLVKPGGSLRLSCAASGFTFSSYVMSWVRQTPGKGLEWVATISSGGTYTYYPESVKGRFTLSRDNAKNSLYLQMNSLRAEDTAVYYCASQLTGSEFDYWGQGTTVTVSS
VL: DIVMTQSPASLAVSLGERATISCRASESVDSYGNSFMHWYQQKPGQPPKLLIYRASNLESGVPDRFSGSGSRTDFTLTINPLQAEDVATYYCHQSADLPWTFGGGTKVEIKR
Consider B5, for which the binding result in experiment [1] and in experiment [2] was “binds” throughout.
